# Experimental data published in PubChem BioAssay AID1732 (National Center for Advancing Translational Sciences (NCATS), 2009).
# The shares of active, inactive and inconclusive entries below differ from those in the screen. A potency beside an inconclusive call is a rough fit, not a confirmed value. Activity calls are given as the source filed them. Calls follow the shape of the dose curve; as a rule, active = well fitted inhibition curve with a large enough effect; inconclusive = small, poorly fitted or top-dose-only effect, or effect the other way, or another doubt; inactive = no such curve, though single readings can be large or run the other way.
# Target: Dual specificity mitogen-activated protein kinase kinase 1 (Homo sapiens) (UniProt Q02750)
# Test: Assay for Inhibitors of the ERK Signaling Pathway using a Homogeneous Screening Assay: MEK Inhibition
# Settings: Potency: homogeneous MEK kinase activity assay; series mostly up to 76.9 µM
# Source text: qHTS Assay for Inhibitors of the ERK Signaling Pathway using a Homogeneous Screening Assay
# NIH Chemical Genomics Center [NCGC]
# NIH Molecular Libraries Screening Centers Network [MLSCN]
# Assay Submitter (PI): Dr. Wei Zheng, NCGC/NIH
# The Ras/extracellular-signal-regulated kinase (ERK) mitogen activated protein (MAP) kinase signaling pathway (ERK1/2 cascade) plays is a key role in transmitting signals from the cell surface to the nucleus (Nishida and Gotoh 1993; Chang and Karin, 2001). The cascade is initiated by the small G-protein Ras, which recruits Raf […], where activation occurs. Alternatively, this pathway can be activated by elevating intracellular cAMP.
# Activation of the ERK pathway is essential in increased cell division and cell survival. Sustained and constitutive activation of the ERK pathway, however, has been linked to uncontrolled cell proliferation, increased cell survival, and tumor progression. Thus, the ERK has been as an attractive target for cancer chemotherapy in the past few years (Sebolt-Leopold and Herrera, 2004). Given its physiological and pathological importance, assessment of ERK phosphorylation has been broadly performed in both basic research and drug discovery. Most assays for the measurement of ERK phosphorylation use the antibody-based detection methods, such as western blot and ELISA. These assays require multiple reagent additions with cell wash steps and are not suitable for high-throughput screening.
# The current cell-based ERK phosphorylation assay was performed using AlphaScreen platform. AlphaScreen is a two bead-based proximity-dependent chemical energy transfer luminescent assay platform. The assay reagents (ERK SureFire(TM) kit) were supplied from TGR BioSciences (Australia). In the presence of specific antibodies, phosphorylated ERK will bring "donor" and "acceptor" beads to a proximity range (<200 nm), and subsequently lead a chemical luminescent reaction upon exciting donor beads with 680 nm laser. To validate pathway hits from the cell-based assay, enzyme assays consisting of EGFR tyrosine kinase, Raf and MEK were used as a means of deciphering the enzymes of target for the prioritized group of compounds derived from the HEK-293 cell based assay. The compounds were tested against significant members of the ERK signaling pathway EGFR and EGFR mutants (EGFR L858R, EGFR T790M, and EGFR L858R T790M). In order to establish the specificity of the prioritized compounds for EGFR and EGFR mutants, the compounds were also assayed against other important ERK signaling pathway enzymes, c-RAF and MEK-1.
# NCGC Assay Protocol Summary:
# The HTRF kinase assay (components supplied as kit by Cisbio) was chosen for the EGFR and EGFR mutant enzyme assays that applied the time resolved fluorescence resonance energy transfer (TR-FRET) principle. A peptide substrate is labeled with a biotin that can bind to XL665 labeled streptavidin and the anti-phosphoresidue antibody is labeled with Eu+. Upon phosphorylation of the substrate, the antibody binds to phosphorylated substrate that enables TR-FRET detection in homogenous assay format.
# An HTRF Kinase TK assay kit (Cisbio, Bedford, MA) was used to develop the MEK assay (Harbert et al., 2008. Harbert C, Marshall J, Soh S, Steger K. Development of a HTRF Kinase Assay for Determination of Syk Activity. Current Chemical Genomics. 1: 20-26. 2008). MEK protein was obtained from Invitrogen. The assay buffer was composed of 50 mM HEPES (pH 7.0), 5 mM MgCl2, 5mM DTT, 0.1 % NaN3, 0.1 % BSA and 0.1 mM orthovanadate.
# The HTRF assays were preformed according to the HTRF Kinase TK kit. Optimization for each enzyme was preformed in 384 well format (data not included). All reagents were dispensed into 1536 well plates.
# (1) Enzyme, 2 nl MEK at 3 nM final
# (2) Compound, 22 nl, Library Compounds in 0.128 to 10 mM titration series or control
# (3) Reagent, 1.5 ul 10 uM ATP and 0.25 uM substrate final
# (4) Incubation for 30 min, Ambient conditions
# (5) Reagent, 3 ul antibody and XL-665
# […]
row,Structure (SMILES),Potency
1,N#C/C(=C(/N)Sc1ccc(N)cc1)c1ccccc1C(F)(F)F,inactive
2,CC1=CC(=O)c2c(O)cccc2C1=O,"inconclusive: 12.6 µM [inhibitor, partial curve, poor fit]"
3,O=C1NC(=O)C(=Cc2ccccc2Oc2ccc(F)cc2)C(=O)N1,"inconclusive: 17.8 µM [inhibitor, partial curve]"
4,O=C1c2ccc(O)c(O)c2C(=O)c2c(O)ccc(O)c21,"inconclusive: 3.55 µM [inhibitor, full curve]"
5,CCn1nc(-c2ccccc2)nc2c(=O)n(C)c(=O)nc1-2,active: 0.631 µM
6,Cc1cc2nc3ccc(=[N+](C)C)cc-3sc2cc1N,"inconclusive: 35.5 µM [activator, partial curve]"
7,Cn1nc(-c2ccc(Cl)cc2)nc2c(=O)n(C)c(=O)nc1-2,"inconclusive: 0.794 µM [inhibitor, full curve]"
8,CCN1C(=O)NC(=O)/C(=C/c2cc(C)n(-c3sc(C)c(C)c3C#N)c2C)C1=O,"inconclusive: 44.7 µM [inhibitor, single point]"
9,Cn1nc(-c2ccccc2)nc2c(=O)n(C)c(=O)nc1-2,active: 0.708 µM
10,CCn1nc(-c2cccs2)nc2c(=O)n(C)c(=O)nc1-2,active: 0.891 µM
11,Fc1ccc(Nc2ncnc3sc4c(c23)CCC4)cc1F,"inconclusive: 39.8 µM [activator, single point]"
12,O=C1c2ccccc2C(=O)c2c1cccc2N1CCCC1,"inconclusive: 1 µM [inhibitor, full curve]"
13,Cc1nc2c(=O)n(C)c(=O)nc-2n(C)n1,"inconclusive: 2 µM [inhibitor, full curve]"

# As entered above:
# Potency, `O=C1c2ccc(O)c(O)c2C(=O)c2c(O)ccc(O)c21` reads inconclusive: 3.55 µM [inhibitor, full curve]
# Potency, `O=C1c2ccccc2C(=O)c2c1cccc2N1CCCC1` reads inconclusive: 1 µM [inhibitor, full curve]
